Reference: PubChem BioAssay AID540276 (National Center for Advancing Translational Sciences (NCATS), 2011)
The campaign covered roughly 300,000 compounds. About 5,400 (1.8%) were called active. Inconclusive results, whose numbers are uncertain, are shown with a selection of clear calls. The call rests on the fitted dose curve; tested in HEK293 cells. Where the call is inconclusive, the potency comes from a doubtful curve fit. Non-standard residues stand in square brackets, D forms with d. Residues, ends and D or L forms follow the SMILES beside them. ξ: configuration not given here. *: point of attachment. Cbz = O=C(OCc1ccccc1)*; ξK = NCCCCC(N)C(=O)O
On the % scale 0 is the no-effect control and ±100 the full control effect; potency means the concentration at half of the fitted maximal effect.

Assay: qHTS for inhibitors of binding or entry into cells for Marburg Virus
Details: Marburg virus pseudotyped entry inhibition, cell reporter; activity change, negative = inhibition: at 37.8 µM (top of the series) unless noted
With `CC1=CC(c2ccc(Cl)cc2)n2nc(NC(=O)CCCC(=O)O)nc2N1` (stereo not given) the Potency was inconclusive: 15.8 µM [activator, single point].
In the case of `CCCNC(=O)CCC(=O)Nc1ncc(-c2ccc(C)cc2)n1C`, the “activity change, negative = inhibition” value is reported as inactive: 0.906%.
In the case of `Cc1ccc(S(=O)(=O)N2CCC(C(=O)Nc3ccc(S(=O)(=O)N4CCOCC4)cc3)CC2)cc1`, the Potency is reported as inconclusive: 10 µM [inhibitor, partial curve, poor fit].
In the case of `COc1ccc(CNc2cc([N+](=O)[O-])ccc2OC)cc1`, the “activity change, negative = inhibition” value is reported as inactive: -3.02%.
For `O=C(NNC(=O)c1sccc1-n1cccc1)c1ccc(Cl)cc1`, the “activity change, negative = inhibition” value was inactive: -0.587% [at 46.1 µM].
With `O=C1CSC(=S)N1/N=C/c1ccc2c(c1)OCCO2` the Potency was inconclusive: 10 µM [activator, single point].
For `Cc1ccc(S(=O)(=O)N(C)c2ccccc2C(=O)Nc2c(F)cccc2F)cc1`, the Potency was inconclusive: 0.562 µM [activator, single point].
With `CC(C)CNC(=O)CSc1nnc(-c2cccc(S(=O)(=O)N3CCCCC3)c2)o1` the “activity change, negative = inhibition” value was inactive: -5.3% [at 46.1 µM].
For `OCc1cccc[n+]1Cc1ccccc1`, the Potency was inconclusive: 1.26 µM [inhibitor, full curve, poor fit].
For `Cc1ccc(NCc2ccccc2-c2nnc(-c3ccccc3Cl)o2)c(C)c1`, the “activity change, negative = inhibition” value was inactive: 9.62% [at 46.1 µM].
For `CCN(CC)c1nc(-c2ccccc2)nc2ccccc12`, the Potency was inconclusive: 35.5 µM [inhibitor, single point].
With `N#CCCN(NC(=O)OCc1ccccc1)C(=O)OCc1ccccc1` the “activity change, negative = inhibition” value was inactive: 1.65%.
With `Cc1cc(Oc2ccc(C)c(Cl)c2)nc(SCC(=O)c2ccccc2)n1` the Potency was inconclusive: 15.8 µM [inhibitor, single point].
With `NC(=O)C1(N2CCCCC2)CCN(C(=O)Nc2ccc(C(F)(F)F)cc2)CC1` the “activity change, negative = inhibition” value was inactive: 15.2% [at 46.1 µM].
In the case of `Cc1ccc(C(=O)NCCSC(C)(C)C)cc1[N+](=O)[O-]`, the Potency is reported as inconclusive: 3.55 µM [activator, single point].
In the case of `Fc1ccc(C(c2nnnn2Cc2ccccc2)N2CCSCC2)cc1` (stereo not given), the “activity change, negative = inhibition” value is reported as inactive: -28.3%.
With `CCS(=O)(=O)c1ncc(Cl)c(C(=O)N2CCN(c3cccc(Cl)c3)CC2)n1` the Potency was active: 5.62 µM.
For `Cc1ccc(NC(=S)NC(=O)c2cccs2)cc1F`, the Potency was inconclusive: 0.891 µM [activator, single point].
With `Cc1ccc(-n2c(N)c(S(=O)(=O)c3ccccc3)c3nc4ccccc4nc32)cc1` the “activity change, negative = inhibition” value was inactive: 2.6% [at 46.1 µM].
With `COCCOC(=O)N/C=C\c1nc2ccccc2c(=O)[nH]1` the Potency was inconclusive: 35.5 µM [inhibitor, partial curve, poor fit].
With `CN(C)S(=O)(=O)c1cccc(NC(=O)c2cccc(NS(=O)(=O)c3ccccc3)c2)c1` the Potency was inconclusive: 6.31 µM [inhibitor, full curve].
With `NC(=O)C1CCN(C(=O)CN2CCc3ccccc32)CC1` the Potency was inconclusive: 11.2 µM [activator, partial curve, poor fit].
For `COc1ccc(NC(=O)Cc2c(C)n(C(=O)c3ccc(Cl)cc3)c3ccc(OC)cc23)cc1`, the Potency was inconclusive: 2.24 µM [inhibitor, partial curve, poor fit].
In the case of `CN(C)CCCNc1oc(-c2cccc(Cl)c2)nc1C#N`, the Potency is reported as inconclusive: 35.5 µM [inhibitor, single point].
With `CC1CCCN(C(=S)NC2CCCC2)C1` (stereo not given) the Potency was inconclusive: 0.562 µM [activator, full curve, poor fit].
In the case of `CC(C)CCNC(=O)CCn1c(=S)oc2ccccc21`, the Potency is reported as inconclusive: 22.4 µM [activator, partial curve, poor fit].
With `O=C(NN=Cc1c(O)ccc2ccccc12)C1CC1` the Potency was inconclusive: 15.8 µM [inhibitor, single point].
With `CN(CC(=O)Nc1ccc(Cl)c(C(F)(F)F)c1)C(=O)/C=C/c1ccco1` the Potency was inconclusive: 11.2 µM [inhibitor, partial curve, poor fit].
With `CCOC(=O)C1CCCc2c1[nH]c1ccc(Cl)cc21` (stereo not given) the Potency was inconclusive: 1.41 µM [inhibitor, partial curve, poor fit].
With `CC1CN(c2oc(Cc3cccc4ccccc34)nc2C#N)CC(C)O1` (stereo not given) the Potency was inconclusive: 12.6 µM [inhibitor, partial curve, poor fit].
For `COc1cccc(CN2CC(C(=O)NC3CCCCCC3)CCC2=O)c1` (stereo not given), the “activity change, negative = inhibition” value was inactive: 24.3% [at 46.1 µM].
In the case of `c1csc(-c2nc(CN3CCSCC3)cs2)c1`, the Potency is reported as inconclusive: 12.6 µM [inhibitor, partial curve, poor fit].
With `COc1cc(OC)c(N(C)S(=O)(=O)c2cccc(C(=O)Nc3nccs3)c2)cc1Cl` the Potency was active: 8.91 µM.
For `Cc1ccc(S(=O)(=O)N2CCOCC2)cc1C(=O)Nc1ccccc1C(=O)O`, the “activity change, negative = inhibition” value was inactive: 4.95% [at 46.1 µM].
With `Cc1ccc(C)c(CSC2=NN3CCCC(=O)N=C3S2)c1` the “activity change, negative = inhibition” value was inactive: 8.04% [at 46.1 µM].
For `O=C(/C=C/c1cccs1)NC(=S)NNC(=O)Cc1cccs1`, the “activity change, negative = inhibition” value was inactive: -23.3%.
With `CN(Cc1ccccc1)C(=O)c1ccc2c(c1)OCO2` the “activity change, negative = inhibition” value was inactive: 5.96%.
With `CCOc1ccccc1N(CC(=O)Nc1cc(OC)ccc1OC)S(C)(=O)=O` the “activity change, negative = inhibition” value was inactive: -24.3%.
In the case of `COc1cccc(OC)c1C(=O)O/N=C(\N)c1ccncc1`, the Potency is reported as inconclusive: 35.5 µM [inhibitor, single point].
In the case of `COc1cccc(C(=O)N(Cc2ccc3c(c2)OCO3)Cc2nc3ccccc3c(=O)[nH]2)c1`, the Potency is reported as inconclusive: 31.6 µM [inhibitor, single point].
In the case of `O=C(c1ccco1)c1cn(CC(=O)N2CCCCC2)c2ccccc12`, the “activity change, negative = inhibition” value is reported as inactive: 1.25%.
In the case of `COc1ccc(OC)c(-c2cc(C(=O)NC(C)c3ccccc3)no2)c1` (stereo not given), the “activity change, negative = inhibition” value is reported as inactive: -16.2% [at 46.1 µM].
For `Cc1nc(C)c(-c2csc(Nc3ccc(S(N)(=O)=O)cc3)n2)s1`, the Potency was inconclusive: 12.6 µM [inhibitor, single point].
For `Cc1ccc(C)c(S(=O)(=O)C(C#N)c2nc3ccccc3nc2N2CC(C)OC(C)C2)c1` (stereo not given), the Potency was inconclusive: 16.4 µM [inhibitor, single point].
For `O=C(COc1cccc(Br)c1)NN=C1c2ccccc2-c2ccccc21`, the Potency was inconclusive: 1.12 µM [inhibitor, single point].
With `O=[N+]([O-])c1ccc2c(c1)C(N1CCOCC1)/C(=C/COc1ccc(Cl)cc1Cl)O2` (stereo not given) the Potency was inconclusive: 17.8 µM [inhibitor, single point].
With `CC(C)c1ccc(C2=C(O)c3ccccc3C(=O)C2=O)cc1` the Potency was inconclusive: 5.62 µM [activator, single point].
With `Cc1cc(C(=O)N2CCC3(CC2)OCCO3)no1` the Potency was inconclusive: 35.5 µM [activator, single point].
In the case of `CCN(CC)S(=O)(=O)c1ccc(N2CCOCC2)c(NC(=O)c2ccc(N3CCCC3=O)cc2)c1`, the Potency is reported as inconclusive: 11.2 µM [inhibitor, partial curve, poor fit].
In the case of `COC(=O)C(CCCCNC(=O)OCc1ccccc1)NC(=O)CN` (stereo not given) (H-Gly-[ξK](Cbz)-OMe), the Potency is reported as inconclusive: 0.282 µM [inhibitor, full curve, poor fit].
For `Cn1ncc(Br)c1C(=O)Nc1ccc(Br)cn1`, the “activity change, negative = inhibition” value was inactive: 0.0434%.
With `CCN1C(=O)C(=Cc2ccc(C)s2)C(=O)N(CC)C1=S` the Potency was inconclusive: 3.16 µM [activator, single point].
With `COc1ccc2oc(C(=O)OC(C)C(=O)NCc3ccccc3)c(C)c2c1` (stereo not given) the Potency was inconclusive: 17.8 µM [inhibitor, single point].
In the case of `O=C(c1ccccc1)c1cc(Cl)ccc1N1C(=O)C=CC1=O`, the Potency is reported as inconclusive: 31.6 µM [inhibitor, single point].
With `COC(=O)CC1(CC(=O)OC)C(=O)NC(=O)NC1=O` the Potency was inconclusive: 16.4 µM [activator, single point].
For `CC(C)(C)N(NC(=O)OCc1ccccc1)C(=O)c1ccccc1`, the Potency was inconclusive: 0.112 µM [inhibitor, full curve, poor fit].
For `O=C(NCCOc1nc(N2CCOCC2)nc(N2CCOCC2)n1)Nc1ccc(Cl)cc1`, the Potency was inconclusive: 20.6 µM [inhibitor, partial curve, poor fit].
For `COc1cc(/C=N/n2c(-c3ccc4c(c3)NC(=O)CO4)csc2=Nc2cccc(C)c2)ccc1O`, the Potency was inconclusive: 22.4 µM [inhibitor, single point].
With `CCOC(=O)c1c(C)oc2c1c1c(c3ccccc32)OCN(Cc2cccnc2)C1` the “activity change, negative = inhibition” value was inactive: 6.86%.
For `CN(C(=O)C(=O)Nc1ccc2nc3n(c(=O)c2c1)CCCCC3)c1cccc(C(F)(F)F)c1`, the “activity change, negative = inhibition” value was inactive: 1.79% [at 46.1 µM].
With `O=C1NC(c2ccccn2)Nc2sc3c(c21)CCC3` (stereo not given) the “activity change, negative = inhibition” value was inactive: 10.9%.
For `COc1ccccc1C(=O)Nc1nnc(SCC(=O)Nc2ccc3c(c2)oc2ccccc23)s1`, the Potency was inconclusive: 35.5 µM [inhibitor, partial curve, poor fit].
With `O=C(CCC(=O)Nc1nnc(C2CCCCC2)s1)NCc1ccc(F)cc1` the Potency was inconclusive: 5.62 µM [activator, partial curve, poor fit].
In the case of `COc1ccc(CC(C)CC(=O)Nc2ccc(OC)cc2)cc1` (stereo not given), the Potency is reported as inconclusive: 1.26 µM [activator, single point].
For `O=C(Nc1ccc(O)cc1)c1ccc(NC(=O)c2ccco2)cc1`, the Potency was inconclusive: 35.5 µM [inhibitor, single point].
For `COc1ccc2c(Cl)c(C(=O)NCC3CCCO3)sc2c1Cl` (stereo not given), the “activity change, negative = inhibition” value was inactive: 2.56%.
For `CC1=C(C(=O)OC2CCCCC2)C(c2ccc(F)cc2)NC(=O)N1` (stereo not given), the Potency was inconclusive: 35.5 µM [inhibitor, single point].
With `CCOc1ccccc1NC(=O)CN(c1ccc(OC)cc1OC)S(=O)(=O)c1ccccc1[N+](=O)[O-]` the Potency was active: 10 µM.
With `COc1ccc2[nH]c(=O)c(CN(C(C)=O)c3ccc(C)c(C)c3)cc2c1` the Potency was inconclusive: 2.51 µM [inhibitor, single point].
For `CC(C)Sc1ncc(Cl)c(C(=O)Nc2nnc(C(C)C)s2)n1`, the “activity change, negative = inhibition” value was inactive: -2.97% [at 46.1 µM].
